From US7618943B2, “Fusion polypeptides, and use thereof in antivascular tumor therapy” (Oncoscience AG, priority 2003, dated 2009)
Some entries share one result that the patent states for a list of compounds.

Sequences of proteins named here, by UniProt entry; tags and fusion partners are left off. Residues count along the entry.
UniProt P05106, 27-788: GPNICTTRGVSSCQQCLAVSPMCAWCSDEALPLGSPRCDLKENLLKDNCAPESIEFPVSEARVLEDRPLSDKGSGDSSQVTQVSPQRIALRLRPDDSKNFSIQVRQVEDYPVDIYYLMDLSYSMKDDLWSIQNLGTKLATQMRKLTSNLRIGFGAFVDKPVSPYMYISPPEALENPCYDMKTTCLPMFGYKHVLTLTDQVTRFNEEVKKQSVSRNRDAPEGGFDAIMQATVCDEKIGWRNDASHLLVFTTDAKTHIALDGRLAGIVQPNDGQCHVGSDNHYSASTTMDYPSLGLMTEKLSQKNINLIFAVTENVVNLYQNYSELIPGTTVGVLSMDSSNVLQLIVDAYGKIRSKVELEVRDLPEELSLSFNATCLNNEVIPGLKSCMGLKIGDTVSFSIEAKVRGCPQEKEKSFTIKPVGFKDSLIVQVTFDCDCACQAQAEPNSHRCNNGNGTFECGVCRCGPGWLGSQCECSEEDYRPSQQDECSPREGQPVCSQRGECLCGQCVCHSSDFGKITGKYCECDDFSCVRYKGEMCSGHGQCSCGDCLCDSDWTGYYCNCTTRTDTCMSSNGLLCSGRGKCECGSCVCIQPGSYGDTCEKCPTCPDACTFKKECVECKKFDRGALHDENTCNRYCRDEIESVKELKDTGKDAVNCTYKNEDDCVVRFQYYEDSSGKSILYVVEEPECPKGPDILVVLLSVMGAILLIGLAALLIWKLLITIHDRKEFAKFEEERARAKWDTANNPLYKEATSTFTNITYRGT
UniProt P06756, 891-1048 limits assumed: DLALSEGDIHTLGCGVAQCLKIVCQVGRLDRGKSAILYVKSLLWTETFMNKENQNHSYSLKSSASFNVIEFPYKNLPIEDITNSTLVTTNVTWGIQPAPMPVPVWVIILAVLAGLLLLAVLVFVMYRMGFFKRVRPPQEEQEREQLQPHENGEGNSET
UniProt P06756, 31-889 limits assumed: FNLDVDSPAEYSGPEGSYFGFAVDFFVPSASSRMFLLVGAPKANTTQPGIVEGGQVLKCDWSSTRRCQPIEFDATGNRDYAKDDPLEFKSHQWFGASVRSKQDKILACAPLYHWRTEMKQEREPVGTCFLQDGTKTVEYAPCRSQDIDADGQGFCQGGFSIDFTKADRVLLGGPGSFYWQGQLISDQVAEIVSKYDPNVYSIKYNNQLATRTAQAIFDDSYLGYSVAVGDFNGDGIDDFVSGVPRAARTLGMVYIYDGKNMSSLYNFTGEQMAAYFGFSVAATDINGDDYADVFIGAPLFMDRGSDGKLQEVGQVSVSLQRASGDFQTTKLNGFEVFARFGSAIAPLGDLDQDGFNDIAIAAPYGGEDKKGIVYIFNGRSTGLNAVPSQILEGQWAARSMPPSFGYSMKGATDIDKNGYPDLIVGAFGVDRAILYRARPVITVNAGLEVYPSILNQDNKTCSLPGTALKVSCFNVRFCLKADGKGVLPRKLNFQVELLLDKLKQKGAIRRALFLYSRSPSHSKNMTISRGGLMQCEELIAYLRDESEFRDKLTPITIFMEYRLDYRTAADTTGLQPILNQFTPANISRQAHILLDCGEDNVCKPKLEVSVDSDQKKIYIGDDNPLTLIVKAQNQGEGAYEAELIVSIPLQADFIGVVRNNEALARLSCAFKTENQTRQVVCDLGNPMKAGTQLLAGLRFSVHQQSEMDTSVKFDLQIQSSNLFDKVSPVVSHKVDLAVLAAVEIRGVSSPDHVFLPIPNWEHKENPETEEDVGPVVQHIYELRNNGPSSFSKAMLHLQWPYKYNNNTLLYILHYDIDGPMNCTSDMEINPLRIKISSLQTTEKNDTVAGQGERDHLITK

B1: tTF-RGD: fusion polypeptide tTF-GRGDSP (SEQ ID NO:3), peptide coupled to C-terminus of tTF (protein)
chain: SGTTNTVAAYNLTWKSTNFKTILEWEPKPVNQVYTVQISTKSGDWKSKCFYTTDTECDLTDEIVKDVKQTYLARVFSYPAGNVESTGSAGEPLYENSPEFTPYLETNLGQPTIQSFEQVGTKVNVTVEDERTLVRRNNTFLSLRDVFGKDLIYTLYYWKSSSSGKKTAKTNTNEFLIDVDKGENYCFSVQAVIPSRTVNRKSTDSPVECMGQEKGEFRGRGDSD
modifications: Amino acid sequence of tTF-GRGDSP
B2: tTF-NGR: fusion polypeptide tTF-GNGRAHA (SEQ ID NO:4) (protein)
chain: SGTTNTVAAYNLTWKSTNFKTILEWEPKPVNQVYTVQISTKSGDWKSKCFYTTDTECDLTDEIVKDVKQTYLARVFSYPAGNVESTGSAGEPLYENSPEFTPYLETNLGQPTIQSFEQVGTKVNVTVEDERTLVRRNNTFLSLRDVFGKDLIYTLYYWKSSSSGKKTAKTNTNEFLIDVDKGENYCFSVQAVIPSRTVNRKSTDSPVECMGQEKGEFRGNGRAHA
modifications: Amino acid sequence of tTF-GNGRAHA

Target: integrin αvβ3 (Homo sapiens, UniProt P05106+P06756)
Experiment: ELISA binding to immobilized purified αvβ3
Conditions: 0.1 μM protein
Experimental: FIG. 4: Binding of tTF, tTF-RGD and tTF-NGR to integrin αvβ3. The binding of 0.1 μM tTF, tTF-RGD and tTF-NGR to immobilized αvβ3 was quantified with a polyclonal antibody against human TF (American Diagnostica) in an ELISA. The results are presented as median and interquartile range. The differences in binding between tTF-RGD and tTF or between tTF-NGR and tTF were statistically significant (p<0.001, Mann-Whitney test).

| Molecule | p of difference in binding relative to tTF (Mann-Whitney test) |
| --- | --- |
| B1 | < 0.001 |
| B2 | < 0.001 |
